Consider 113 substances from the supplement of paper PMC5949888.

Most values lie at the floor of the assay. Slopes are relative: functional sequences can read slightly below zero.

The series has as its system Saccharomyces cerevisiae PS128 hsf1 delta, HSF1(1-493) fusion. The series is described as follows: growth estimate (transactivation domain function in HSF1 fusion, heat-shock survival) (a.u. (slope of normalised read count over time)); higher = stronger growth at 37°C, i.e. more transactivation activity. The settings on record: library: random library.
Take RRRISGFIAANC: the growth estimate is under -0.25.

For the substance GIGHLLSVLLPGVRIRLRSG, the growth estimate is under -0.25.

MFRTVGCTQSS: the growth estimate was under -0.25.

As for CNTLVSDRLSRTH, the growth estimate is under -0.25.

LNPFYLLCLADRLERVPG: the growth estimate was under -0.25.

Regarding FLSLVRGGLAQVTGRQGIRG, the growth estimate was under -0.25.

In the case of GGDASKGSASS, the growth estimate is under -0.25.

Take VSSNRRLLGIITMRDHRRAR: the growth estimate was under -0.25.

For TRVSSCKIAIWPRSSKFKQP, the growth estimate is under -0.25.

As for RGSQCIFTGPLGGRKCFPSD, the growth estimate was under -0.25.

For the substance TRPRS, the growth estimate was under -0.25.

For TLFFGSSLVTDISEVPCVRP, the growth estimate is under -0.25.

Regarding MCIFINESGSSTDQTQFYRG, the growth estimate was under -0.25.

PHLRGVLTHSGIHYDAC: the growth estimate was under -0.25.

Take EGRVPPQPCSDP: the growth estimate is under -0.25.

Consider LGGRTVGWMLLLPWRFRSPV, for which the growth estimate is under -0.25.

Regarding TLIAG, the growth estimate was under -0.25.

As for WSPGHIAKVARRAKI, the growth estimate is under -0.25.

In the case of GSCLVGADGLVETERAVVFG, the growth estimate is under -0.25.

As to RGVPRLLRLLTGVGACTD, the growth estimate was under -0.25.

Regarding VCSTAHLI, the growth estimate was under -0.25.

For the substance VVIRRGTSSPFWICPL, the growth estimate is -0.245.

VQIIAMQWA: the growth estimate was under -0.25.

As for GTILRRGITSVTPVEH, the growth estimate was under -0.25.

For the substance GWT, the growth estimate was under -0.25.

Consider RGGIYGYRGLVA, for which the growth estimate is under -0.25.

For the substance VDFGAVVIVLYEDTVDSGHK, the growth estimate was under -0.25.

For the substance DHLWWYIAVMGCRPGVRFDR, the growth estimate was under -0.25.

Turning to QLNYWFC, the growth estimate is under -0.25.

Turning to VGHIHRTDDSVSTVSKLLWR, the growth estimate is under -0.25.

Take GEWALLESL: the growth estimate is -0.226.

Consider VMSILLNLKVTHPAGRDDQA, for which the growth estimate was under -0.25.

On to QYQRRQPNQSGGKGRHERTI, for which the growth estimate is under -0.25.

As to ANLPQYT, the growth estimate was under -0.25.

RHLRGFSKGGCPTIVPLRMC: the growth estimate is under -0.25.

In the case of SLKVRGRGRLRETFSLGAGT, the growth estimate is under -0.25.

For the substance SKRLLRPCYKGPESVEASET, the growth estimate was under -0.25.

Take SQGSAFALE: the growth estimate was under -0.25.

Consider GPFDLRPAEKQ, for which the growth estimate was under -0.25.

On to FWQLDTLRGSLSVRWV, for which the growth estimate is under -0.25.

RWVMCVGQR: the growth estimate was under -0.25.

In the case of RKIVSDPEAGSFERPPRTDH, the growth estimate was under -0.25.

Turning to FPLCV, the growth estimate is under -0.25.

Turning to LPSEQAITEV, the growth estimate is under -0.25.

With PSFGPEQADHAVTGHVPGEV, the growth estimate is under -0.25.

On to GTGFSLMVQQTTRPLWVDFC, for which the growth estimate is under -0.25.

Turning to DAHAVRHRSSFHHGEFTSQK, the growth estimate is under -0.25.

For the substance PSFLLWLKQTTRESRPICSW, the growth estimate was under -0.25.

IIWAGLSHGRNEQGFAQYTD: the growth estimate was under -0.25.

As to GTILHQDLNRFTSSQAD, the growth estimate is -0.197.

Consider GEYQRGLLYSPADPTRNHSG, for which the growth estimate is under -0.25.

With CRESRTHEGRGRLVRRAPIL, the growth estimate is under -0.25.

In the case of AVVY, the growth estimate was under -0.25.

ETVELDSHQSCTGSTESLSL: the growth estimate was under -0.25.

In the case of GRGEALWRHD, the growth estimate was under -0.25.

IEVRV: the growth estimate is under -0.25.

For LGFASLMQKGWSMLLCSILV, the growth estimate is under -0.25.

Consider LTIWRVGRWGTLLCLRHKVR, for which the growth estimate is under -0.25.

Consider PCAPCSYGAFGIIKLWVQGQ, for which the growth estimate is under -0.25.

Take MYWASYSVLTTPAKQLARVP: the growth estimate is under -0.25.

Take TNRKPVNPIILNASEDTLTH: the growth estimate was under -0.25.

Regarding LNMHSIEFGCRRH, the growth estimate was under -0.25.

Consider EPVDPVKRTNVYIDTEMAWF, for which the growth estimate is under -0.25.

On to LTCCSIRFSIPSSG, for which the growth estimate is under -0.25.

Take DLAP: the growth estimate is -0.245.

As for SVTGWFGFHRCSCVRGPDDR, the growth estimate was under -0.25.

For the substance VSRT, the growth estimate was under -0.25.

Regarding QSDITTRVVATAMCGAWIGV, the growth estimate was under -0.25.

IYS: the growth estimate was under -0.25.

In the case of SIITGHCRERADIQCHALEI, the growth estimate is under -0.25.

On to CSCNYMSHELARPGVRTPST, for which the growth estimate is under -0.25.

Turning to GEACSIP, the growth estimate was under -0.25.

Take AVRKKTSKTRYSVVSFLERE: the growth estimate is under -0.25.

Turning to VLLLCSRRPVYIESSKSARR, the growth estimate is under -0.25.

As to SYFRLPCVWFRD, the growth estimate was under -0.25.

As to DNMSRWWIIRSIAARLCARA, the growth estimate is under -0.25.

Take GLRDQELGRRKDSRPYMA: the growth estimate is 0.0616.

Regarding CHPGFLVESRLERSKVSRLI, the growth estimate is under -0.25.

Turning to STREIISVRTIPTNTVPSDG, the growth estimate is -0.185.

On to VHRE, for which the growth estimate is under -0.25.

As for GAIKRNLLNLTVCHSGNVVD, the growth estimate was under -0.25.

As for RPRP, the growth estimate was under -0.25.

For the substance AGEAVNISRGDRCGTRRSNR, the growth estimate is under -0.25.

On to TITWTPVKVSSLGTALDFIG, for which the growth estimate is under -0.25.

On to SVVGGPSRYPNYARL, for which the growth estimate was under -0.25.

With SLSACQDPPACERDPARREL, the growth estimate is under -0.25.

Consider ERRRPNLLCGLPWSLLLSIR, for which the growth estimate was under -0.25.

With VTQ, the growth estimate was under -0.25.

Turning to CSGGVIQIAPH, the growth estimate is under -0.25.

Take HTKELPLQIANTNLSRGQRC: the growth estimate was under -0.25.

VCALA: the growth estimate was under -0.25.

For the substance HSGNRNTSNNVGVGT, the growth estimate is under -0.25.

With ALPTAIQVH, the growth estimate is under -0.25.

Turning to LGHQWPYGDEAAKAMAETPY, the growth estimate was under -0.25.

Take LGLHTYEPLDSLTPPA: the growth estimate was under -0.25.

With LNSIVRLSIVGKASSQNLSR, the growth estimate was under -0.25.

In the case of AQIREVVHKPQQVRHRPRKC, the growth estimate was under -0.25.

Consider DAYTHEKDLSRAGNP, for which the growth estimate is under -0.25.

In the case of SHKHRPGSRKTPRALQQQTY, the growth estimate is under -0.25.

Turning to SSSFSRPRR, the growth estimate is under -0.25.

VKSGTVG: the growth estimate is under -0.25.

As to CQSIRGLGGMGKCWAACTFA, the growth estimate is under -0.25.

For the substance NLRGCGINLCIGERKSVDSW, the growth estimate was under -0.25.

For HLYLLECVLPRPSGMA, the growth estimate was under -0.25.

For the substance GEMGLLAPELQGGRREMSSC, the growth estimate was under -0.25.

As for QLCLRDDRRI, the growth estimate is under -0.25.

Turning to VLRGNHRTRVNFSEKLSRES, the growth estimate is under -0.25.

Turning to QLRSGEARIVQPLTYGPRLI, the growth estimate is under -0.25.

For the substance LYETTLITFFGALVIGLHCV, the growth estimate was under -0.25.

Regarding KATTGGILKKEDSRHVKTCH, the growth estimate is 0.0323.

Turning to FPAGPWMRPIHRVSIMMPLP, the growth estimate was under -0.25.

In the case of HLWTCCKWGD, the growth estimate was under -0.25.

For YCLVLLCAYGELLDTYGRKP, the growth estimate was under -0.25.
